Some of these results come from one statement about several compounds together.
target: BaF3-FL KIT D816V cells (Homo sapiens, UniProt P10721, D816V, cells depend on it, form not given); test: Cell-based assay of c-Kit mutant kinase activity, BaF3-FL KIT D816V cell proliferation (ATPlite); conditions: in at least one of the c-kit cell assays described in Example 28 (BaF3-FL KIT D816V or BaF3-FL KIT V560G/D816V); read-out: IC50 (the source's name)

By UniProt entry, the sequences of proteins in these tests, tags left out.
UniProt P10721, whole entry D816V: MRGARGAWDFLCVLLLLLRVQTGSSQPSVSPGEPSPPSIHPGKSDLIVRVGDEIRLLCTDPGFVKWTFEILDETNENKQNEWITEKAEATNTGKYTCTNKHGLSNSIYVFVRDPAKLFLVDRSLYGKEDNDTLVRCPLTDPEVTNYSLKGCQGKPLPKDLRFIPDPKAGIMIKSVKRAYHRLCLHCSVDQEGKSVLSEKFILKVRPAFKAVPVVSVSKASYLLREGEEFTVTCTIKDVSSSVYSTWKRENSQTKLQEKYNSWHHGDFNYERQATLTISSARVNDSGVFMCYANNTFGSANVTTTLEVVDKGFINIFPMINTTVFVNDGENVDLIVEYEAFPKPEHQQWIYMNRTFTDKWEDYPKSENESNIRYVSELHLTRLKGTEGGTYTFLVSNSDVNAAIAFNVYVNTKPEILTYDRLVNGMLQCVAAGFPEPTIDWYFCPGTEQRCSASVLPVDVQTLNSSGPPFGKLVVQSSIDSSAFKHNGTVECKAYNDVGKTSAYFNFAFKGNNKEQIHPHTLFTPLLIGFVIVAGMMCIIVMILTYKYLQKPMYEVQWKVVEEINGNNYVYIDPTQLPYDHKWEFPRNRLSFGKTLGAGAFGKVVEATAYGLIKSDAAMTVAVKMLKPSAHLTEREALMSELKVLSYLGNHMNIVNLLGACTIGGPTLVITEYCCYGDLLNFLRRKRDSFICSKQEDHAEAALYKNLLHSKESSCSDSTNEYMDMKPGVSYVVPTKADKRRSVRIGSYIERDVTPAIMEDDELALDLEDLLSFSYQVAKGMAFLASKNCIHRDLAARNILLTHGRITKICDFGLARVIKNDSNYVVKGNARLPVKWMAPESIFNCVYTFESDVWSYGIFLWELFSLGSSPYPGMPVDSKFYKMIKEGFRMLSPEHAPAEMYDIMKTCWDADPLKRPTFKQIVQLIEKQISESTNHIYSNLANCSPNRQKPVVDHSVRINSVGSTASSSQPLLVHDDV

| Structure (SMILES) | GI50 |
| --- | --- |
| COc1ccc(NC(=O)N2CCN(c3ncnc4[nH]c(I)cc34)CC2)cc1 [P-0244, 4-(6-iodo-7H-pyrrolo[2,3-d]pyrimidin-4-yl)-N-(4-methoxyphenyl)piperazine-1-carboxamide] | < 10 µM |
| COc1cc2ncnc(-c3ccc(S(=O)(=O)Nc4ccc(Cl)cc4)cc3F)c2cc1OCCCN1CCOCC1 [P-0247, N-(4-chlorophenyl)-3-fluoro-4-[7-methoxy-6-(3-morpholinopropoxy)quinazolin-4-yl]benzenesulfonamide] | < 10 µM |
| COc1cc2ncnc(-c3ccc(S(=O)(=O)Nc4ccc(F)cc4)cc3F)c2cc1OCCCN1CCOCC1 [P-0248, 3-fluoro-N-(4-fluorophenyl)-4-[7-methoxy-6-(3-morpholinopropoxy)quinazolin-4-yl]benzenesulfonamide] | < 10 µM |
| COc1ccc(S(=O)(=O)Nc2ccc(-c3ncnc4cc(OC)c(OCCCN5CCOCC5)cc34)c(F)c2)cc1 [P-0249, N-[3-fluoro-4-[7-methoxy-6-(3-morpholinopropoxy)quinazolin-4-yl]phenyl]-4-methoxy-benzenesulfonamide] | < 10 µM |
| COc1cc2ncnc(-c3ccc(NS(=O)(=O)c4ccc(Cl)cc4)cc3F)c2cc1OCCCN1CCOCC1 [P-0250, 4-chloro-N-[3-fluoro-4-[7-methoxy-6-(3-morpholinopropoxy)quinazolin-4-yl]phenyl]benzenesulfonamide] | < 10 µM |
| COc1cc2ncnc(-c3ccc(NS(C)(=O)=O)cc3F)c2cc1OCCCN1CCOCC1 [P-0252, N-[3-fluoro-4-[7-methoxy-6-(3-morpholinopropoxy)quinazolin-4-yl]phenyl]methanesulfonamide] | < 10 µM |
| COc1ccc(S(=O)(=O)Nc2ccc(-c3ncnc4cc(OCCCN5CCCCC5)c(OC)cc34)c(F)c2)cc1 [P-0255, N-[3-fluoro-4-[6-methoxy-7-[3-(1-piperidyl)propoxy]quinazolin-4-yl]phenyl]-4-methoxy-benzenesulfonamide] | < 10 µM |
| COc1cc2c(-c3ccc(NS(=O)(=O)c4ccc(Cl)cc4)cc3F)ncnc2cc1OCCCN1CCCCC1 [P-0256, 4-chloro-N-[3-fluoro-4-[6-methoxy-7-[3-(1-piperidyl)propoxy]quinazolin-4-yl]phenyl]benzenesulfonamide] | < 10 µM |
| COc1cc2c(-c3ccc(NS(=O)(=O)C4CC4)cc3F)ncnc2cc1OCCCN1CCCCC1 [P-0257, N-[3-fluoro-4-[6-methoxy-7-[3-(1-piperidyl)propoxy]quinazolin-4-yl]phenyl]cyclopropanesulfonamide] | < 10 µM |
| COCCOc1cc2ncnc(-c3ccc(NS(=O)(=O)c4ccc(OC(F)F)cc4)cc3F)c2cc1OCCOC [P-0259, N-[4-[6,7-bis(2-methoxyethoxy)quinazolin-4-yl]-3-fluoro-phenyl]-4-(difluoromethoxy)benzenesulfonamide] | < 10 µM |
| COCCOc1cc2ncnc(-c3ccc(NS(=O)(=O)c4cccc(F)c4)cc3F)c2cc1OCCOC [P-0260, N-[4-[6,7-bis(2-methoxyethoxy)quinazolin-4-yl]-3-fluoro-phenyl]-3-fluoro-benzenesulfonamide] | < 10 µM |
| COCCOc1cc2ncnc(-c3ccc(NS(=O)(=O)c4ccc(Cl)cc4)cc3F)c2cc1OCCOC [P-0261, N-[4-[6,7-bis(2-methoxyethoxy)quinazolin-4-yl]-3-fluoro-phenyl]-4-chloro-benzenesulfonamide] | < 10 µM |
| COCCOc1cc2ncnc(-c3ccc(NS(=O)(=O)C4CC4)cc3F)c2cc1OCCOC [P-0263, N-[4-[6,7-bis(2-methoxyethoxy)quinazolin-4-yl]-3-fluoro-phenyl]cyclopropanesulfonamide] | < 10 µM |
| O=S(=O)(Nc1ccc(-c2ncnc3cc4c(cc23)OCCO4)c(F)c1)C1CC1 [P-0265, N-[4-(7,8-dihydro-[1,4]dioxino[2,3-g]quinazolin-4-yl)-3-fluoro-phenyl]cyclopropanesulfonamide] | < 10 µM |
| CS(=O)(=O)Nc1ccc(-c2ncnc3cc4c(cc23)OCCO4)c(F)c1 [P-0266, N-[4-(7,8-dihydro-[1,4]dioxino[2,3-g]quinazolin-4-yl)-3-fluoro-phenyl]methanesulfonamide] | < 10 µM |
| COc1cc2ncnc(-c3ccc(NS(=O)(=O)c4ccc(Cl)cc4)cc3F)c2cc1OC [P-0268, 4-chloro-N-[4-(6,7-dimethoxyquinazolin-4-yl)-3-fluoro-phenyl]benzenesulfonamide] | < 10 µM |
| CCCS(=O)(=O)Nc1ccc(-c2ncnc3cc(OC)c(OC)cc23)c(F)c1 [P-0269, N-[4-(6,7-dimethoxyquinazolin-4-yl)-3-fluoro-phenyl]propane-1-sulfonamide] | < 10 µM |
| COc1cc2ncnc(-c3ccc(NS(=O)(=O)C4CC4)cc3F)c2cc1OC [P-0270, N-[4-(6,7-dimethoxyquinazolin-4-yl)-3-fluoro-phenyl]cyclopropanesulfonamide] | < 10 µM |
| COc1cc2ncnc(-c3ccc(NS(C)(=O)=O)cc3F)c2cc1OC [P-0271, N-[4-(6,7-dimethoxyquinazolin-4-yl)-3-fluoro-phenyl]methanesulfonamide] | < 10 µM |
| COc1cc2ncnc(-c3ccc(NS(C)(=O)=O)c(F)c3)c2cc1OC [P-0272, N-[4-(6,7-dimethoxyquinazolin-4-yl)-2-fluoro-phenyl]methanesulfonamide] | < 10 µM |

| Structure (SMILES) | GI50 |
| --- | --- |
| COc1ccc(S(=O)(=O)Nc2ccc(-c3ncnc4cc(OC)c(OC)cc34)cc2F)cc1 [P-0273, N-[4-(6,7-dimethoxyquinazolin-4-yl)-2-fluoro-phenyl]-4-methoxy-benzenesulfonamide] | < 10 µM |
| COc1cc2ncnc(-c3ccc(NS(=O)(=O)N4CCCC4)c(F)c3)c2cc1OC [P-0274, N-[4-(6,7-dimethoxyquinazolin-4-yl)-2-fluoro-phenyl]pyrrolidine-1-sulfonamide] | < 10 µM |
| CCCS(=O)(=O)Nc1ccc(-c2ncnc3cc(OC)c(OC)cc23)cc1F [P-0275, N-[4-(6,7-dimethoxyquinazolin-4-yl)-2-fluoro-phenyl]propane-1-sulfonamide] | < 10 µM |
| COc1cc2ncnc(-c3ccc(N)c(F)c3)c2cc1OC [P-0276, 4-(6,7-dimethoxyquinazolin-4-yl)-2-fluoro-aniline] | < 10 µM |
| COc1cc2ncnc(-c3ccc(S(=O)(=O)NC4CC4)cc3)c2cc1OC [P-0277, N-cyclopropyl-4-(6,7-dimethoxyquinazolin-4-yl)benzenesulfonamide] | < 10 µM |
| COc1cc2ncnc(-c3ccc(S(N)(=O)=O)cc3)c2cc1OC [P-0278, 4-(6,7-dimethoxyquinazolin-4-yl)benzenesulfonamide] | < 10 µM |
| COc1cc2ncnc(-c3ccc(NS(=O)(=O)C4CC4)cc3)c2cc1OC [P-0280, N-[4-(6,7-dimethoxyquinazolin-4-yl)phenyl]cyclopropanesulfonamide] | < 10 µM |
| Cc1ccc(-c2cc3c(C4=CCC(NS(=O)(=O)c5ccc(OC(F)(F)F)cc5)CC4)ncnc3[nH]2)cn1 (stereo not shown) [P-0281, N-[4-[6-(6-methyl-3-pyridyl)-7H-pyrrolo[2,3-d]pyrimidin-4-yl]cyclohex-3-en-1-yl]-4-(trifluoromethoxy)benzenesulfonamide] | < 10 µM |
| Cc1cccc(S(=O)(=O)Nc2ccc(-c3ncnc4[nH]c(C)cc34)cc2)c1 [P-0283, 3-methyl-N-[4-(6-methyl-7H-pyrrolo[2,3-d]pyrimidin-4-yl)phenyl]benzenesulfonamide] | < 10 µM |
| Cc1cc2c(-c3ccc(NS(=O)(=O)c4cccc(OC(F)(F)F)c4)cc3)ncnc2[nH]1 [P-0284, N-[4-(6-methyl-7H-pyrrolo[2,3-d]pyrimidin-4-yl)phenyl]-3-(trifluoromethoxy)benzenesulfonamide] | < 10 µM |
| Cc1ccc(S(=O)(=O)Nc2ccc(-c3ncnc4[nH]c(C)cc34)c(F)c2)cn1 [P-0286, N-[3-fluoro-4-(6-methyl-7H-pyrrolo[2,3-d]pyrimidin-4-yl)phenyl]-6-methyl-pyridine-3-sulfonamide] | < 10 µM |
| CCCCc1ccc(S(=O)(=O)Nc2ccc(-c3ncnc4[nH]c(C)cc34)cc2)cc1 [P-0287, 4-butyl-N-[4-(6-methyl-7H-pyrrolo[2,3-d]pyrimidin-4-yl)phenyl]benzenesulfonamide] | < 10 µM |
| CCCS(=O)(=O)Nc1ccc(-c2ncnc3[nH]c(C)cc23)cc1 [P-0289, N-[4-(6-methyl-7H-pyrrolo[2,3-d]pyrimidin-4-yl)phenyl]propane-1-sulfonamide] | < 10 µM |
| O=S(=O)(Nc1ccc(-c2ncnc3[nH]c(C4CCCC4)cc23)cc1)c1ccc(F)cc1 [P-0290, N-[4-(6-cyclopentyl-7H-pyrrolo[2,3-d]pyrimidin-4-yl)phenyl]-4-fluoro-benzenesulfonamide] | < 10 µM |
| Cc1cc2c(-c3ccc(NS(=O)(=O)c4ccc(C)s4)cc3F)ncnc2[nH]1 [P-0291, N-[3-fluoro-4-(6-methyl-7H-pyrrolo[2,3-d]pyrimidin-4-yl)phenyl]-5-methyl-thiophene-2-sulfonamide] | < 10 µM |
| Cc1ccc(S(=O)(=O)Nc2ccc(-c3ncnc4[nH]c(C)cc34)c(F)c2)cc1 [P-0293, N-[3-fluoro-4-(6-methyl-7H-pyrrolo[2,3-d]pyrimidin-4-yl)phenyl]-4-methyl-benzenesulfonamide] | < 10 µM |
| Cc1cc2c(-c3ccc(NS(=O)(=O)c4ccc5c(c4)OCO5)cc3)ncnc2[nH]1 [P-0294, N-[4-(6-methyl-7H-pyrrolo[2,3-d]pyrimidin-4-yl)phenyl]-1,3-benzodioxole-5-sulfonamide] | < 10 µM |
| CC1(C)C=C(c2cc3c(-c4ccc(NS(=O)(=O)c5ccc(F)cc5)cc4)ncnc3[nH]2)CC(C)(C)N1 [P-0295, 4-fluoro-N-[4-[6-(2,2,6,6-tetramethyl-1,3-dihydropyridin-4-yl)-7H-pyrrolo[2,3-d]pyrimidin-4-yl]phenyl]benzenesulfonamide] | < 10 µM |
| O=S(=O)(Nc1ccc(-c2ncnc3[nH]c(C4=CCCC4)cc23)cc1)c1ccc(F)cc1 [P-0296, N-[4-[6-(cyclopenten-1-yl)-7H-pyrrolo[2,3-d]pyrimidin-4-yl]phenyl]-4-fluoro-benzenesulfonamide] | < 10 µM |
| Cc1cc2c(-c3ccc(NS(=O)(=O)c4ccc(C(F)(F)F)nc4)cc3)ncnc2[nH]1 [P-0297, N-[4-(6-methyl-7H-pyrrolo[2,3-d]pyrimidin-4-yl)phenyl]-6-(trifluoromethyl)pyridine-3-sulfonamide] | < 10 µM |

From patent US10227357B2, “Compounds and methods for kinase modulation, and indications therefor” (Plexxikon Inc., priority 2012, dated 2019)
